# Like-named read-outs stand apart in the source and are kept apart here. These are yes or no findings as the source states them, for the method shown. Binding seen in cells or lysates may run through a third protein. Some results given as binding are weak or reduced against the parent protein; the word gives no strength. For some of these results: Sequences can lack the tags named with a protein.
# Amino acid sequences for entries named in this document (tags omitted).
# UniProt Q9UNE7: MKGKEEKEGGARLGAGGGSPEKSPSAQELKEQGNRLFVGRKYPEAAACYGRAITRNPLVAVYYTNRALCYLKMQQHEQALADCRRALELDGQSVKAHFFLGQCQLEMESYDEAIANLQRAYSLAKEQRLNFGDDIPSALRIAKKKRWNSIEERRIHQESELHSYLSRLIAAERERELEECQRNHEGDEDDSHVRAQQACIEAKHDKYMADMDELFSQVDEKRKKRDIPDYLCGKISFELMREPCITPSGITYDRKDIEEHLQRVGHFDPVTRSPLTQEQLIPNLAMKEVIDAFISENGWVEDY
# UniProt Q08752: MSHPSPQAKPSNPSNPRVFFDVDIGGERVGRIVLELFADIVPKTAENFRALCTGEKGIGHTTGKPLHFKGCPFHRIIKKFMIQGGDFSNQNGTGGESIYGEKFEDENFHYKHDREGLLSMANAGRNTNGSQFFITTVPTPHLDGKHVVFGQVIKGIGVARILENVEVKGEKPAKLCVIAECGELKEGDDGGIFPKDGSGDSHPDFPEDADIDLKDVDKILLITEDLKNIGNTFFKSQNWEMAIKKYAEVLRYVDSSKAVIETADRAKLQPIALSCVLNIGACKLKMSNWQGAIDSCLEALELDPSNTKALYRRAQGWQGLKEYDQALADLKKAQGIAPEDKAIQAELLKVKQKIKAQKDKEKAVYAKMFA
# UniProt P08235: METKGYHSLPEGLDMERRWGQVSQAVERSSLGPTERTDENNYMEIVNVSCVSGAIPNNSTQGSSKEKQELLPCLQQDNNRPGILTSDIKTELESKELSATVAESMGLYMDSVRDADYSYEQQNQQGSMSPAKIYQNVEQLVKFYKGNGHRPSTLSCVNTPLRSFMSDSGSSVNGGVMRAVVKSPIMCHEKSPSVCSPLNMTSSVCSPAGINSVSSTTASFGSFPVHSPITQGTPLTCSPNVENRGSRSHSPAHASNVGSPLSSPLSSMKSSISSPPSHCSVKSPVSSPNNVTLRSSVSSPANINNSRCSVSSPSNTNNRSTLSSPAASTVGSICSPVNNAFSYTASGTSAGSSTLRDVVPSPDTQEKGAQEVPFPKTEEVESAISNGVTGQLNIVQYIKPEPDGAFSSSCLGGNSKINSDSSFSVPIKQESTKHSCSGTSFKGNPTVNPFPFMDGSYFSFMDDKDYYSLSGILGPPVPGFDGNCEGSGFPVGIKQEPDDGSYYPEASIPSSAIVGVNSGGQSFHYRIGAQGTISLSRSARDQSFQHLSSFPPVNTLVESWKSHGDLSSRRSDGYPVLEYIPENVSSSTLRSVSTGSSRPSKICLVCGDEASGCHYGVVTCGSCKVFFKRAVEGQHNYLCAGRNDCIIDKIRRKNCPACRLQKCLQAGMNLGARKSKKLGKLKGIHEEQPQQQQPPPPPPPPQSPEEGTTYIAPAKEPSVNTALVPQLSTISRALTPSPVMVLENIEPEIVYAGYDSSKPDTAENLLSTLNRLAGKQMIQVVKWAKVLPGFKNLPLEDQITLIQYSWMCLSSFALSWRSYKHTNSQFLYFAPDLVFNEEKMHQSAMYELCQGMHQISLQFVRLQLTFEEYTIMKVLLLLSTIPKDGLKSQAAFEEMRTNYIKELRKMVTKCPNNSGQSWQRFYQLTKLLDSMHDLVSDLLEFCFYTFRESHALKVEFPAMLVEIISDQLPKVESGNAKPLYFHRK
# UniProt P06401: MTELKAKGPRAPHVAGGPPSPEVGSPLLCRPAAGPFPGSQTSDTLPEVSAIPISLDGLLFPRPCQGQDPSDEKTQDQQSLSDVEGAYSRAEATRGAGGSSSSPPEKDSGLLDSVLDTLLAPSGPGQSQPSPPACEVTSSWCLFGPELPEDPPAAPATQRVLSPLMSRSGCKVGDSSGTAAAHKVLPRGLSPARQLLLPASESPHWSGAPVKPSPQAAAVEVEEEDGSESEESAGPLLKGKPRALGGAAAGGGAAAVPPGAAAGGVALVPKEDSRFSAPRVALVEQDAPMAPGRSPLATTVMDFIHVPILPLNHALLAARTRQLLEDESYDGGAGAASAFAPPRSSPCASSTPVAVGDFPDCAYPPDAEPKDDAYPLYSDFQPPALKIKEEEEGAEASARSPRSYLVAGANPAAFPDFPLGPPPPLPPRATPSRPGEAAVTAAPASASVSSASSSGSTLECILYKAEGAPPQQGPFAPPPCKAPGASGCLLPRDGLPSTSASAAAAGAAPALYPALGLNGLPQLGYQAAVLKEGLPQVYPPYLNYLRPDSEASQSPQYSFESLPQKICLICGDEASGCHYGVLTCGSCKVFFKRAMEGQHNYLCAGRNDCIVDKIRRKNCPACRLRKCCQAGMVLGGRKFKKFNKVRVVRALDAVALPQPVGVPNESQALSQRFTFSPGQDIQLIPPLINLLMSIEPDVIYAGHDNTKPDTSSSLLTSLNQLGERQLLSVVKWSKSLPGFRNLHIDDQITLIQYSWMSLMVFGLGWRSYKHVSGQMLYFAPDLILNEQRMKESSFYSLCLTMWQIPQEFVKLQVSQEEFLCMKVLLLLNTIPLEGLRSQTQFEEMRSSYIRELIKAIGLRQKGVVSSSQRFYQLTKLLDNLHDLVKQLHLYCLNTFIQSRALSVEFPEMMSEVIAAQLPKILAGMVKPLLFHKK
# UniProt P04150: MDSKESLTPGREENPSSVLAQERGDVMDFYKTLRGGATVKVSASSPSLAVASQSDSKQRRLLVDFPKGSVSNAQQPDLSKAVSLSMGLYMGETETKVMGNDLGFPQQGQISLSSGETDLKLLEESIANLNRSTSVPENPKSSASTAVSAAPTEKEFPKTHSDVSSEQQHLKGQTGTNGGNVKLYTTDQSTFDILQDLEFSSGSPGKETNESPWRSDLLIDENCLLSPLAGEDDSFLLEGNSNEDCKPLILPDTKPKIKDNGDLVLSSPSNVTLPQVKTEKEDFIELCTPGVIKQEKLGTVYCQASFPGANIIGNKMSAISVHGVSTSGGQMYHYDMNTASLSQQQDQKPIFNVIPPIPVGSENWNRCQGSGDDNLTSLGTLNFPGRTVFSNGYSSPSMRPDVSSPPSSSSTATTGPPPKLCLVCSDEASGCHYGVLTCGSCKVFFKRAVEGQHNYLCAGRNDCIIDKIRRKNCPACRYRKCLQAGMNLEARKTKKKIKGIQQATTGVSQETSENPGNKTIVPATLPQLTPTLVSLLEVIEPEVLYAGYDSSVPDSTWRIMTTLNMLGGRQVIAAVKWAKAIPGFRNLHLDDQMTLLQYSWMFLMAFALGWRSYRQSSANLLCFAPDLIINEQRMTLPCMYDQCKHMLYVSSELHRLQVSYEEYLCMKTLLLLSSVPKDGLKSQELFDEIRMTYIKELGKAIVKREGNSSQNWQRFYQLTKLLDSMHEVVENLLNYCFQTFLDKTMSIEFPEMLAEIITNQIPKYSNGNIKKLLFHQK
# UniProt P10275: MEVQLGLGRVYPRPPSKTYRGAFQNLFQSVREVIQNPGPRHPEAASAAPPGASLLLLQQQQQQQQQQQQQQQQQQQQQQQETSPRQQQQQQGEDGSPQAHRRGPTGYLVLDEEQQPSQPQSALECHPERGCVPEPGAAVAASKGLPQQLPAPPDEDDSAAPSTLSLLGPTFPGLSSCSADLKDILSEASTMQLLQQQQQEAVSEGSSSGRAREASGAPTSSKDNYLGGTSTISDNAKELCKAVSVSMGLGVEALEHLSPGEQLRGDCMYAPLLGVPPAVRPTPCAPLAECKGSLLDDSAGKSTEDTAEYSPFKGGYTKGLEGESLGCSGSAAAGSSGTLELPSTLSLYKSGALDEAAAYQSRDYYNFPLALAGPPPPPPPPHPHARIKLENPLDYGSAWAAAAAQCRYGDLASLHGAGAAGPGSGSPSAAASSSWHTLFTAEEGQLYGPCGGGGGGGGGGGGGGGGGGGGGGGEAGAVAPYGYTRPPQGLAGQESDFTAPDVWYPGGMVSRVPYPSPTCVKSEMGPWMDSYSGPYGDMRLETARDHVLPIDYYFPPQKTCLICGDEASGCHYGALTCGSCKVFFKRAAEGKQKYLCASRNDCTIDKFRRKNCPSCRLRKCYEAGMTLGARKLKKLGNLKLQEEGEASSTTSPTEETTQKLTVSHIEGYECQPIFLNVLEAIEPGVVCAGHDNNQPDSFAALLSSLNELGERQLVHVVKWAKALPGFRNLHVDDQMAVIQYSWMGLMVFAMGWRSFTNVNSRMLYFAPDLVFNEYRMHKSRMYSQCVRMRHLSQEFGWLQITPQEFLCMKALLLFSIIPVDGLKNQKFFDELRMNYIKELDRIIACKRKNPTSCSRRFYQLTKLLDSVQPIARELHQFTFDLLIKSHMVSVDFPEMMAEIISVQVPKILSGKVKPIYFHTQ
# B1: FK506 binding protein 51 (FKBP51), C-terminal FLAG fusion (protein, UniProt Q13451 1-457)
# chain: MTTDEGAKNNEESPTATVAEQGEDITSKKDRGVLKIVKRVGNGEETPMIGDKVYVHYKGKLSNGKKFDSSHDRNEPFVFSLGKGQVIKAWDIGVATMKKGEICHLLCKPEYAYGSAGSLPKIPSNATLFFEIELLDFKGEDLFEDGGIIRRTKRKGEGYSNPNEGATVEIHLEGRCGGRMFDCRDVAFTVGEGEDHDIPIGIDKALEKMQREEQCILYLGPRYGFGEAGKPKFGIEPNAELIYEVTLKSFEKAKESWEMDTKEKLEQAAIVKEKGTVYFKGGKYMQAVIQYGKIVSWLEMEYGLSEKESKASESFLLAAFLNLAMCYLKLREYTKAVECCDKALGLDSANEKGLYRRGEAQLLMNEFESAKGDFEKVLEVNPQNKAARLQISMCQKKAKEHNERDRRIYANMFKKFAEQDAKEEANKAMGKKTSEGVTNEKGTDSQAMEEEKPEGHV
# B2: tetratricopeptide repeat protein 2 (TPR2), C-terminal FLAG fusion (protein, UniProt Q99615 1-494)
# chain: MAAAAECDVVMAATEPELLDDQEAKREAETFKEQGNAYYAKKDYNEAYNYYTKAIDMCPKNASYYGNRAATLMMLGRFREALGDAQQSVRLDDSFVRGHLREGKCHLSLGNAMAACRSFQRALELDHKNAQAQQEFKNANAVMEYEKIAETDFEKRDFRKVVFCMDRALEFAPACHRFKILKAECLAMLGRYPEAQSVASDILRMDSTNADALYVRGLCLYYEDCIEKAVQFFVQALRMAPDHEKACIACRNAKALKAKKEDGNKAFKEGNYKLAYELYTEALGIDPNNIKTNAKLYCNRGTVNSKLRKLDDAIEDCTNAVKLDDTYIKAYLRRAQCYMDTEQYEEAVRDYEKVYQTEKTKEHKQLLKNAQLELKKSKRKDYYKILGVDKNASEDEIKKAYRKRALMHHPDRHSGASAEVQKEEEKKFKEVGEAFTILSDPKKKTRYDSGQDLDEEGMNMGDFDPNNIFKAFFGGPGGFSFEASGPGNFFFQFG
# B3: hepatitis virus B X-associated protein 2 (XAP2), C-terminal FLAG fusion (protein, UniProt O00170 1-330)
# chain: MADIIARLREDGIQKRVIQEGRGELPDFQDGTKATFHYRTLHSDDEGTVLDDSRARGKPMELIIGKKFKLPVWETIVCTMREGEIAQFLCDIKHVVLYPLVAKSLRNIAVGKDPLEGQRHCCGVAQMREHSSLGHADLDALQQNPQPLIFHMEMLKVESPGTYQQDPWAMTDEEKAKAVPLIHQEGNRLYREGHVKEAAAKYYDAIACLKNLQMKEQPGSPEWIQLDQQITPLLLNYCQCKLVVEEYYEVLDHCSSILNKYDDNVKAYFKRGKAHAAVWNAQEAQADFAKVLELDPALAPVVSRELRALEARIRQKDEEDKARFRGIFSH
# B4: protein phosphatase 5 (PP5), C-terminal FLAG fusion (enzyme, UniProt P53041 1-499)
# chain: MAMAEGERTECAEPPRDEPPADGALKRAEELKTQANDYFKAKDYENAIKFYSQAIELNPSNAIYYGNRSLAYLRTECYGYALGDATRAIELDKKYIKGYYRRAASNMALGKFRAALRDYETVVKVKPHDKDAKMKYQECNKIVKQKAFERAIAGDEHKRSVVDSLDIESMTIEDEYSGPKLEDGKVTISFMKELMQWYKDQKKLHRKCAYQILVQVKEVLSKLSTLVETTLKETEKITVCGDTHGQFYDLLNIFELNGLPSETNPYIFNGDFVDRGSFSVEVILTLFGFKLLYPDHFHLLRGNHETDNMNQIYGFEGEVKAKYTAQMYELFSEVFEWLPLAQCINGKVLIMHGGLFSEDGVTLDDIRKIERNRQPPDSGPMCDLLWSDPQPQNGRSISKRGVSCQFGPDVTKAFLEENNLDYIIRSHEVKAEGYEVAHGGRCVTVFSAPNYCDQMGNKASYIHLQGSDLRPQFHQFTAVPHPNVKPMAYANTLLQLGMM
# Assays:
# [1] = target: C-terminus of Hsp70 interacting protein (CHIP), C-terminal FLAG fusion (UniProt Q9UNE7); experiment: co-IP; HEK-293 co-expressing an HA-tagged steroid receptor and a FLAG-tagged TPR protein, steroid-free serum; Lysis-Buffer A'; TPR protein precipitated on anti-FLAG M2 agarose overnight at 4°C, FLAG-peptide elution; co-precipitated receptor by HA immunoblot, densitometry
# [2] = target: Cyclophillin-40 (Cyp40), C-terminal FLAG fusion (UniProt Q08752); experiment: as above
# [3] = target: T1, protein phosphatase 5 (PP5), C-terminal FLAG fusion (UniProt P53041); experiment: as above
# T1 sequence: B4 chain
# [4] = target: T2, tetratricopeptide repeat protein 2 (TPR2), C-terminal FLAG fusion (UniProt Q99615); experiment: as above
# T2 sequence: B2 chain
# [5] = target: T3, FK506 binding protein 51 (FKBP51), C-terminal FLAG fusion (UniProt Q13451); experiment: as above
# T3 sequence: B1 chain
# [6] = target: mineralocorticoid receptor (MR), N-terminally HA-tagged (UniProt P08235); experiment: co-IP; HEK-293 co-expressing an HA-tagged steroid receptor and a FLAG-tagged TPR protein, steroid-free serum; Lysis-Buffer A' (130 mM NaCl, 20 mM Na2MoO4, 20 mM Tris-HCl pH 7.5, 0.5% Triton X-100); receptor precipitated on anti-HA agarose overnight at 4°C, HA-peptide elution; co-precipitated TPR proteins by FLAG immunoblot, densitometry
# [7] = target: progesterone receptor (PR), N-terminally HA-tagged (UniProt P06401); experiment: as above
# [8] = target: glucocorticoid receptor (GR), N-terminally HA-tagged (UniProt P04150); experiment: as above
# [9] = target: mineralocorticoid receptor (MR), N-terminally HA-tagged (UniProt P08235); experiment: as above; remark: listed apart in the source
# [10] = target: androgen receptor (AR), N-terminally HA-tagged (UniProt P10275); experiment: as above
# [11] = target: progesterone receptor (PR), N-terminally HA-tagged (UniProt P06401); experiment: as above; remark: listed apart in the source
# [12] = target: glucocorticoid receptor (GR), N-terminally HA-tagged (UniProt P04150); experiment: as above; remark: listed apart in the source
Molecule,binding [9],binding [10],binding [11],binding [12],also measured
"mineralocorticoid receptor (MR), N-terminally HA-tagged (from UniProt P08235 1-984)",,,,,binding [1]: binds; binding [2]: binds weakly; binding [3]: binds; binding [4]: binds; binding [5]: binds
"glucocorticoid receptor (GR), N-terminally HA-tagged (from UniProt P04150 1-777)",,,,,binding [1]: binds; binding [2]: binds weakly; binding [3]: binds; binding [4]: binds; binding [5]: binds
"C-terminus of Hsp70 interacting protein (CHIP), C-terminal FLAG fusion (from UniProt Q9UNE7 1-303)",,,,,binding [6]: binds; binding [7]: binds; binding [8]: binds
B1,binds,binds,binds,binds,
B2,binds,binds,binds,binds,
B3,binds,binds,binds weakly,binds,
B4,binds,,binds weakly,binds,

# Source: article PMC2908686
